The results in this text go back to PMC12748351, “The TDG protein environment connects active DNA demethylation with chromatin and RNA biology”.

The chains behind the UniProt entries cited, without tags or fusion partners. Where a name states a change or a piece, a line headed by the entry shows the natural chain unless it says otherwise.
UniProt P56581: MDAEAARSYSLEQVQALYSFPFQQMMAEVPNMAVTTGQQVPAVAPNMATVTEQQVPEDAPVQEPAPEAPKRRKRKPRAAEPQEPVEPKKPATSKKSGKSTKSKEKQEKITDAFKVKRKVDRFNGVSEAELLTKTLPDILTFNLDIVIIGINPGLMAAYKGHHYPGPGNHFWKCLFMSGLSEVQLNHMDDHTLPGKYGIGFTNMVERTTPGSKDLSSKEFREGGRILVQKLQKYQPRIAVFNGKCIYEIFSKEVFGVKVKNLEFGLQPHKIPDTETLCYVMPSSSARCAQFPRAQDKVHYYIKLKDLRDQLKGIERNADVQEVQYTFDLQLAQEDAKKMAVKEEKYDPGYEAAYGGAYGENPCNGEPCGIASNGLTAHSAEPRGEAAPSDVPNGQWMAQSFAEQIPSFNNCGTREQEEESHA
UniProt Q96KQ7: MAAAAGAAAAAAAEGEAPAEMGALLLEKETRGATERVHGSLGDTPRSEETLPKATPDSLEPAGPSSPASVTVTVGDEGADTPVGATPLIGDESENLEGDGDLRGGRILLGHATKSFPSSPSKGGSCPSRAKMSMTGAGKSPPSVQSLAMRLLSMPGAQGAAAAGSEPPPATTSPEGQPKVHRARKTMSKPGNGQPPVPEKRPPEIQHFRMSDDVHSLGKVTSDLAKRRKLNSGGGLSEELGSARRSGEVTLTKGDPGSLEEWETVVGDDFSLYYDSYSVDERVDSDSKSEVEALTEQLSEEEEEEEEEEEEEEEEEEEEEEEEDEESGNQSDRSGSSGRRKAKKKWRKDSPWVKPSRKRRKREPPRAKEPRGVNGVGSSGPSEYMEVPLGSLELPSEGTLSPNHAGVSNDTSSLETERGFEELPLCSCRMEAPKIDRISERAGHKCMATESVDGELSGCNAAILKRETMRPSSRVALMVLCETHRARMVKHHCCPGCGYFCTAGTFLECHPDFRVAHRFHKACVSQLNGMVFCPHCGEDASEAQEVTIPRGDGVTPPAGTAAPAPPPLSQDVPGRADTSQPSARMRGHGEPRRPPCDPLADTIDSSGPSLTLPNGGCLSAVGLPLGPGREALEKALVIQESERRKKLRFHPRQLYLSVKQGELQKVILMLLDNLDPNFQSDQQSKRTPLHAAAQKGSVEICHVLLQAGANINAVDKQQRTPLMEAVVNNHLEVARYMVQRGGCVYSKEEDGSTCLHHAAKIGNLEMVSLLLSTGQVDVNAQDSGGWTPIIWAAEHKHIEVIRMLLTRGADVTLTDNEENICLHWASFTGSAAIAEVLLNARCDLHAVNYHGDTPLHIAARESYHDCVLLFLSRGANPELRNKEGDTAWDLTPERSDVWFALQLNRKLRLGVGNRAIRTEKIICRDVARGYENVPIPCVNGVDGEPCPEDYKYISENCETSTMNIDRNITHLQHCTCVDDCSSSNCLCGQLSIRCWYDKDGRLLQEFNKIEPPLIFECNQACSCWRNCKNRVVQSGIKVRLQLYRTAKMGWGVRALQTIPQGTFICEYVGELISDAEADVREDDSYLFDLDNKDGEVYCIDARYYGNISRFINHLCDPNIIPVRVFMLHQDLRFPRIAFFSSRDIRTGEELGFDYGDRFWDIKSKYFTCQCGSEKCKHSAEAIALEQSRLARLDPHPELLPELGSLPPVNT
UniProt P09405: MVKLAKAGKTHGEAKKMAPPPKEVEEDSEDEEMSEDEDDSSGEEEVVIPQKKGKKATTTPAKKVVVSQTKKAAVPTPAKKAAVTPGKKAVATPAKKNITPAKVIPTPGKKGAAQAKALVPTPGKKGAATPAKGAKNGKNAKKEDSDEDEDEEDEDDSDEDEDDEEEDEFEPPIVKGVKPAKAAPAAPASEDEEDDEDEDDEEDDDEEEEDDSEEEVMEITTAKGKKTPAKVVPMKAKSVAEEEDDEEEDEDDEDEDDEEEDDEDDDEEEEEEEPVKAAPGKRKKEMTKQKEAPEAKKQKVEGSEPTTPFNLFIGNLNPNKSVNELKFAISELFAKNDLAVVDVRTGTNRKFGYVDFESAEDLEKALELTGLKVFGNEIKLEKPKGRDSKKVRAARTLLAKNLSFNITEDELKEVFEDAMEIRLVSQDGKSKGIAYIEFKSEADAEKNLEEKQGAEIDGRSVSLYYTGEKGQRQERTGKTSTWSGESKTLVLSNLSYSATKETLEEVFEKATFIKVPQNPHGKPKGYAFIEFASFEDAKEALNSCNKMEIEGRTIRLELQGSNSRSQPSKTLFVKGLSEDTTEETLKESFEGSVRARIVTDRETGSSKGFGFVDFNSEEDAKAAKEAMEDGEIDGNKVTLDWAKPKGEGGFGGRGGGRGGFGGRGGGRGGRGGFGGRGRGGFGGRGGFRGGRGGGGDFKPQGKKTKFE
UniProt P28070: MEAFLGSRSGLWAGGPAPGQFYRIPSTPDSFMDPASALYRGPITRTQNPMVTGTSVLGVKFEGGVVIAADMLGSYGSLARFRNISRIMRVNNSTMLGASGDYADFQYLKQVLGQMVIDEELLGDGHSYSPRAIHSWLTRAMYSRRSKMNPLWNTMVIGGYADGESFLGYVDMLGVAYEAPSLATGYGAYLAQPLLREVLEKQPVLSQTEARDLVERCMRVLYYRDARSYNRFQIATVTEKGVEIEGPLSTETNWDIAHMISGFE
UniProt Q06323: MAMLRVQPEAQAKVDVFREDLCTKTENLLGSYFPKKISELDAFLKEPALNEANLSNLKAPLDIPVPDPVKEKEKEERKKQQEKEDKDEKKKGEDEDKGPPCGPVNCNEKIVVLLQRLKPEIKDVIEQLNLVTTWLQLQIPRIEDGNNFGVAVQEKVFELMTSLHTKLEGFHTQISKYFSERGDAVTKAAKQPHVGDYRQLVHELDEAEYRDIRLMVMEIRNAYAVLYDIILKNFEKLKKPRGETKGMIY
UniProt Q9UL46: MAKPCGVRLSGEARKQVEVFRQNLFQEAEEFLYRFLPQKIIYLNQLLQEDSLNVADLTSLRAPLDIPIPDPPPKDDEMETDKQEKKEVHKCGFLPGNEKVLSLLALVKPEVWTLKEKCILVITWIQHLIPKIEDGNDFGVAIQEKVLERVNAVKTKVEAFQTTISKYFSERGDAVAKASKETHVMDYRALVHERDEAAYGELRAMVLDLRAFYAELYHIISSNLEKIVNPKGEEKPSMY
UniProt O00268: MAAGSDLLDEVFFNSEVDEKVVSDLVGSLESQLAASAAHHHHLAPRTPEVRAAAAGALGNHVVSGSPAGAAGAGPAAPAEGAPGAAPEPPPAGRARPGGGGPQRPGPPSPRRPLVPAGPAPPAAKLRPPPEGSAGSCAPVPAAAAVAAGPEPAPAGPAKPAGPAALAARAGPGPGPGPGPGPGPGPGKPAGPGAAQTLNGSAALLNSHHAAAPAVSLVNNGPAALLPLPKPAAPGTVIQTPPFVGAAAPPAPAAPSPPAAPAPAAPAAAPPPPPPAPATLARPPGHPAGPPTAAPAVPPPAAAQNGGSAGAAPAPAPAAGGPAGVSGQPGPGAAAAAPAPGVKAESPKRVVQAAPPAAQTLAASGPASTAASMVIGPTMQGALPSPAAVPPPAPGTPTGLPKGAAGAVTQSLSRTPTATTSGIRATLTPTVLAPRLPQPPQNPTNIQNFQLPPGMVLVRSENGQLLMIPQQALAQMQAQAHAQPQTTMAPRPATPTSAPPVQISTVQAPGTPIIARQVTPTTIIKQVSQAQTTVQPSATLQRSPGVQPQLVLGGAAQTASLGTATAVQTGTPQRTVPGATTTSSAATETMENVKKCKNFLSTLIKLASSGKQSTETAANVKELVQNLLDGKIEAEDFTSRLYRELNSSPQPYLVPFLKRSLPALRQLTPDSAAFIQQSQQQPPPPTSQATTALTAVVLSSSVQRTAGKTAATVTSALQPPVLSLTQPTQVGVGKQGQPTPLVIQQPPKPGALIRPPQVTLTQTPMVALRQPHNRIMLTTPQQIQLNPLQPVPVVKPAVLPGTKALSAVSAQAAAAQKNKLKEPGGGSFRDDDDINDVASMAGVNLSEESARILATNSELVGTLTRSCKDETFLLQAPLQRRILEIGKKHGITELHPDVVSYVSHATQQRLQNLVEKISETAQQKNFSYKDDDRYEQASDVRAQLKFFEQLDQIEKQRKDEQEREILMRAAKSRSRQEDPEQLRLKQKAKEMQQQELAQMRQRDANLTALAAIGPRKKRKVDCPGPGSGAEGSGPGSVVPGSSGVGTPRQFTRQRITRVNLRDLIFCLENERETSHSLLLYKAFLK
UniProt Q16594: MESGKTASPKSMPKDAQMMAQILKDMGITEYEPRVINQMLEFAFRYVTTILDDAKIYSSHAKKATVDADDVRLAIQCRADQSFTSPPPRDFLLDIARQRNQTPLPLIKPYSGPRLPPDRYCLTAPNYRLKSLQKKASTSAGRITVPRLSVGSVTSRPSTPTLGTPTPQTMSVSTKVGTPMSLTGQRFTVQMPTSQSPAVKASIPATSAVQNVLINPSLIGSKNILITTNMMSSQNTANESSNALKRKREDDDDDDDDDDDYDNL
UniProt Q3URK3: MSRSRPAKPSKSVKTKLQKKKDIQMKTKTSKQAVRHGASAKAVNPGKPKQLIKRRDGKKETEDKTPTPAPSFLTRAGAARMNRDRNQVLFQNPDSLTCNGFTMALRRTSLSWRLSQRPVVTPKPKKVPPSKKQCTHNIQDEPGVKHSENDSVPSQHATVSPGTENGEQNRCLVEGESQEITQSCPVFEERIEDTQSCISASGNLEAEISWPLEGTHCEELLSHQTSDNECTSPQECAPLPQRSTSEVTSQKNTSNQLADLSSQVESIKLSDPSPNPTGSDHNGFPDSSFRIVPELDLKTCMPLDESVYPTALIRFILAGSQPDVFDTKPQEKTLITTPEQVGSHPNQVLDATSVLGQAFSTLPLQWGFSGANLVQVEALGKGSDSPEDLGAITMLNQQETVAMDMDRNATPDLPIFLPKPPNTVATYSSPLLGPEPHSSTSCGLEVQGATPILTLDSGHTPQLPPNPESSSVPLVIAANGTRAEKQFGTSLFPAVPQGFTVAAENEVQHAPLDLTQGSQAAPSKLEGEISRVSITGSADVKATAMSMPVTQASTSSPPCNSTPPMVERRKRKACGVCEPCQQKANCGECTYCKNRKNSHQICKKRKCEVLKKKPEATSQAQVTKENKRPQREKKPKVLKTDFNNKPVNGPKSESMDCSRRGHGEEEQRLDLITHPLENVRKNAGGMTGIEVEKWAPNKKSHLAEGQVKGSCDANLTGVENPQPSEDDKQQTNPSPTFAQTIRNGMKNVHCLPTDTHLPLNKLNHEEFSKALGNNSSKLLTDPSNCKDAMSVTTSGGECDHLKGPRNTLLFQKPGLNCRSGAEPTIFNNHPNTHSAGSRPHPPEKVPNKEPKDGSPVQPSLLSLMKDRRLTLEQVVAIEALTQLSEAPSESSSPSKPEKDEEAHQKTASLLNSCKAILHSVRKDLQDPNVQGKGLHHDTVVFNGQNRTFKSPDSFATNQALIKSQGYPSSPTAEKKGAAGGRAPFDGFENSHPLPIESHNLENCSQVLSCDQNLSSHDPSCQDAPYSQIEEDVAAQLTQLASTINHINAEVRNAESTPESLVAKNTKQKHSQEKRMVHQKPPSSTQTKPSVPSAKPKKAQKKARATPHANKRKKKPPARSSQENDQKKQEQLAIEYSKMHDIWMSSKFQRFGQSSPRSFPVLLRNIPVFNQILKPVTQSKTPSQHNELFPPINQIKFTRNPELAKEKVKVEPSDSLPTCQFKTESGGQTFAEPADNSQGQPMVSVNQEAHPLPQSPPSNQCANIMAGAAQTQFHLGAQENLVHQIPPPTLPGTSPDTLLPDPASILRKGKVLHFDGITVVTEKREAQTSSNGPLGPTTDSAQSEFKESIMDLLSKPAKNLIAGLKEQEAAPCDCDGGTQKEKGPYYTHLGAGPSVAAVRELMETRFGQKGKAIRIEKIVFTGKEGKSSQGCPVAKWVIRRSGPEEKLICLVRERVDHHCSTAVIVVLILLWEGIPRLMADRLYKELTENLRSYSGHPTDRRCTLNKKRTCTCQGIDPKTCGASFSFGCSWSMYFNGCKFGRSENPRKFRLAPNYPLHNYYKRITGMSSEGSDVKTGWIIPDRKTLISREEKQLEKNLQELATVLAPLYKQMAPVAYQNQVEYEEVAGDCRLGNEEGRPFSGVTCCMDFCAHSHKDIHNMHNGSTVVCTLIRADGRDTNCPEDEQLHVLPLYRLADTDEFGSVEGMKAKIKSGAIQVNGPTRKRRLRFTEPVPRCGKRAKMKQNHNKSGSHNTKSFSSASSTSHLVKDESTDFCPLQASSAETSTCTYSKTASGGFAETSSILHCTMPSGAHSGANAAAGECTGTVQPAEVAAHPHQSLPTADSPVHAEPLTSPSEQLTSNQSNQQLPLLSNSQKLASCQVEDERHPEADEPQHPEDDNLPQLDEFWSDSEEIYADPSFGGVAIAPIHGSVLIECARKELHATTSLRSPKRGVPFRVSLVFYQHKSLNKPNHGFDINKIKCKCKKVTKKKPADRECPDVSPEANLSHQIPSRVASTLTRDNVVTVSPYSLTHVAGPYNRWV

The target in assay [1] is TDG-BirA* fusion protein, HA-tagged (pPgk-mTDGa-BioID2-HA), stably expressed in mESC (murine) (UniProt P56581). Briefly: proximity labelling; BioID2-MS in mESC stably expressing TDG-BirA*; 60 µM biotin for 48 h; nuclear fraction; approach A: lysis and streptavidin purification in denaturing urea buffers; enriched over NLS-BirA* and no-BirA* (nucleolar proteins: over no-BirA* only).

The target in assay [2] is TDG-BirA* fusion protein, HA-tagged (pCMV-mTDGa-BioID2-HA), expressed in HEK293T (murine) (UniProt P56581). Briefly: proximity labelling; BioID2-MS in Tdg-/- HEK293T transiently expressing TDG-BirA*; 50 µM biotin for 24 h; whole-cell lysis in 8 M urea, streptavidin beads, LC-MS; enriched over NLS-BirA*, H4-BirA*, no BirA* and no biotin controls (log2FC > 1, q-value < 0.1).

For assay [3], the target named is TDG-BirA* fusion protein, HA-tagged (pPgk-mTDGa-BioID2-HA), stably expressed in mESC (murine) (UniProt P56581). Briefly: proximity labelling; BioID2-MS in mESC stably expressing TDG-BirA*; 60 µM biotin for 48 h; nuclear fraction; approach B: high-salt extraction with Benzonase, streptavidin beads washed with SDS and high-salt buffers; enriched over NLS-BirA* and no-BirA* (nucleolar proteins: over no-BirA* only).

For assay [4] the target is unchanged. Briefly: proximity labelling; BioID2-MS in mESC stably expressing TDG-BirA*; nuclear fraction; approach A or B is not told for these hits.
Assay [5] has the same target. The assay is described as above. This is another data set of the same source.

No constants are given. Whether binding was seen depends on the method and setting. Binding seen in cells or lysates may run through a third protein. Here binding means that the protein was enriched with, or labelled near, the bait; the list need not be complete.

“AP-endonuclease 1 (from UniProt P28352 1-317) (enzyme)”: in assay [1], the binding entry is recorded as “binds”.
In the case of BRD8 (from UniProt Q9H0E9 1-1235), the binding entry in assay [2] is “binds”.
In the case of “EHMT2 (from UniProt Q96KQ7 1-1210) (enzyme)”, the binding entry in assay [2] is “binds”.
On the same count and under the same terms, under FUS (from UniProt P35637 1-526) stands “binds”.
As to NCL (from UniProt P09405 1-707), the binding result in assay [1] and in assay [3] was “binds” throughout.
In the case of “NSD1 (endogenous in HEK293T) (from UniProt Q96L73 1-2696) (enzyme)”, in assay [2], the binding result is “binds”.
Regarding “NSD1 (endogenous in mESC) (from UniProt O88491 1-2588) (enzyme)”, the binding result in assay [1] and in assay [3] was “binds” in each case.
With PSMB4 (from UniProt P28070), the binding result in assay [2] is “binds”.
The same measure, in the same setting: under PSME1 (from UniProt Q06323 1-249) stands “binds”.
Same read-out and setting: the entry for PSME2 (from UniProt Q9UL46 1-239) is “binds”.
As for “RUVBL1 (endogenous in mESC) (from UniProt P60122 1-456)”, in assay [4], the binding result is recorded as “binds”.
As for “RUVBL2 (endogenous in mESC) (from UniProt Q9WTM5 1-463)”, in assay [4], the binding result is listed as “binds”.
The same measure, in the same setting: the entry for SMARCA4 (from UniProt Q3TKT4 1-1613) is “binds”.
In the case of SMCHD1 (from UniProt Q6P5D8 1-2007), the binding result in assay [1] and in assay [3] was “binds” each time.
As to TAF4 (from UniProt O00268 1-1085), in assay [2], the binding entry is “binds”.
On the same count and under the same terms, under TAF9 (from UniProt Q16594 1-264) stands “binds”.
As for “TET1 (from UniProt Q3URK3 1-2039) (enzyme)”, the binding result in assay [3] is on record as “binds”.

B1: RBM17 (protein, UniProt Q96I25 1-401)
chain: MSLYDDLGVETSDSKTEGWSKNFKLLQSQLQVKKAALTQAKSQRTKQSTVLAPVIDLKRGGSSDDRQIVDTPPHVAAGLKDPVPSGFSAGEVLIPLADEYDPMFPNDYEKVVKRQREERQRQRELERQKEIEEREKRRKDRHEASGFARRPDPDSDEDEDYERERRKRSMGGAAIAPPTSLVEKDKELPRDFPYEEDSRPRSQSSKAAIPPPVYEEQDRPRSPTGPSNSFLANMGGTVAHKIMQKYGFREGQGLGKHEQGLSTALSVEKTSKRGGKIIVGDATEKDASKKSDSNPLTEILKCPTKVVLLRNMVGAGEVDEDLEVETKEECEKYGKVGKCVIFEIPGAPDDEAVRIFLEFERVESAIKAVVDLNGRYFGGRVVKACFYNLDKFRVLDLAEQV
On to B1, for which, in assay [2], the binding result is recorded as “binds”.

B2: ARID3A (protein, UniProt Q99856 1-593)
chain: MKLQAVMETLLQRQQRARQELEARQQLPPDPPAAPPGRARAAPDEDREPESARMQRAQMAALAAMRAAAAGLGHPASPGGSEDGPPGSEEEDAAREGTPGSPGRGREGPGEEHFEDMASDEDMKPKWEEEEMEEDLGEDEEEEEEDYEDEEEEEDEEGLGPPGPASLGTTALFPRKAQPPQAFRGDGVPRVLGGQERPGPGPAHPGGAAHVAPQLQPPDHGDWTYEEQFKQLYELDGDPKRKEFLDDLFSFMQKRGTPVNRIPIMAKQVLDLFMLYVLVTEKGGLVEVINKKLWREITKGLNLPTSITSAAFTLRTQYMKYLYPYECEKRGLSNPNELQAAIDSNRREGRRQSFGGSLFAYSPGGAHGMLSSPKLPVSSLGLAASTNGSSITPAPKIKKEEDSAIPITVPGRLPVSLAGHPVVAAQAAAVQAAAAQAAVAAQAAALEQLREKLESAEPPEKKMALVADEQQRLMQRALQQNFLAMAAQLPMSIRINSQASESRQDSAVNLTGTNGSNSISMSVEINGIMYTGVLFAQPPAPTPTSAPNKGGGGGGGSSSNAGGRGGNTGTSGGQAGPAGLSTPSTSTSNNSLP
On to B2, for which the binding result in assay [2] is on record as “binds”.

B3: ASS1 (enzyme, UniProt P00966 1-412)
chain: MSSKGSVVLAYSGGLDTSCILVWLKEQGYDVIAYLANIGQKEDFEEARKKALKLGAKKVFIEDVSREFVEEFIWPAIQSSALYEDRYLLGTSLARPCIARKQVEIAQREGAKYVSHGATGKGNDQVRFELSCYSLAPQIKVIAPWRMPEFYNRFKGRNDLMEYAKQHGIPIPVTPKNPWSMDENLMHISYEAGILENPKNQAPPGLYTKTQDPAKAPNTPDILEIEFKKGVPVKVTNVKDGTTHQTSLELFMYLNEVAGKHGVGRIDIVENRFIGMKSRGIYETPAGTILYHAHLDIEAFTMDREVRKIKQGLGLKFAELVYTGFWHSPECEFVRHCIAKSQERVEGKVQVSVLKGQVYILGRESPLSLYNEELVSMNVQGDYEPTDATGFININSLRLKEYHRLQSKVTAK
Regarding B3, the binding entry in assay [2] is listed as “binds”.

B4: DDX21 (enzyme, UniProt Q9JIK5 1-851)
chain: MPGKLRSGAKLGSDGAEESMETLPKPSEKKTRKEKTKSKTEEATEGMEEAVSSKAKKTNKKGPSEDDVDPPKSRKAKKQEEEPQDDTASTSKTSKKKKEPLEKQADSETKEIITEEPSEEEADMPKPKKMKKGKEANGDAGEKSPKLKNGLSQPSEEEADIPKPKKMKKGKEANGDAGEKSPKLKNGLSQPSEEEVDIPKPKKMKKGKEASGDAGEKSPRLKDGLSQPSEPKSNSSDAPGEESSSETEKEIPVEQKEGAFSNFPISEETVKLLKARGVNFLFPIQAKTFHHVYSGKDLIAQARTGTGKTFSFAIPLIEKLQGGLQERKRGRAPQVLVLAPTRELANQVSKDFSDITKKLSVACFYGGTPYGGQIERMRSGIDILVGTPGRIKDHLQNGKLDLTKLKHVVLDEVDQMLDMGFADQVEEILCVAYKKDSEDNPQTLLFSATCPHWVFNVAKKYMKSTYEQVDLIGKKTQKAAITVEHLAIKCHWTERAAVIGDVIRVYSGHQGRTIIFCETKKDAQELSQNTCIKQDAQSLHGDIPQKQREITLKGFRNGNFGVLVATNVAARGLDIPEVDLVVQSCPPKDVESYIHRSGRTGRAGRTGVCICFYQNKEEYQLAQVEQKAGIKFKRIGVPSATEIIKASSKDAIRLLDSVPPTAISHFKQSAEKLIEEKGAVEALAAALAHISGATSVDQRSLINSQAGFVTMILRCSIEMPNISYAWKELKEQLGESIDAKVKGMVFLKGKLGVCFDVRTEAVTEIQEKWHDSRRWQLTVATEQPELEGPPDGYRGRMGQRDGSRGAFRGQRGGSRNFRGQGQRGGSRNFRGQRPGGGNRGQKRSFSKAFGQ
With B4, the binding result in assay [5] was “binds”.

B5: ZMYM2 (protein, UniProt Q9UBW7 1-1377)
chain: MDTSSVGGLELTDQTPVLLGSTAMATSLTNVGNSFSGPANPLVSRSNKFQNSSVEDDDDVVFIEPVQPPPPSVPVVADQRTITFTSSKNEELQGNDSKITPSSKELASQKGSVSETIVIDDEEDMETNQGQEKNSSNFIERRPPETKNRTNDVDFSTSSFSRSKVNAGMGNSGITTEPDSEIQIANVTTLETGVSSVNDGQLENTDGRDMNLMITHVTSLQNTNLGDVSNGLQSSNFGVNIQTYTPSLTSQTKTGVGPFNPGRMNVAGDVFQNGESATHHNPDSWISQSASFPRNQKQPGVDSLSPVASLPKQIFQPSVQQQPTKPVKVTCANCKKPLQKGQTAYQRKGSAHLFCSTTCLSSFSHKPAPKKLCVMCKKDITTMKGTIVAQVDSSESFQEFCSTSCLSLYEDKQNPTKGALNKSRCTICGKLTEIRHEVSFKNMTHKLCSDHCFNRYRMANGLIMNCCEQCGEYLPSKGAGNNVLVIDGQQKRFCCQSCVSEYKQVGSHPSFLKEVRDHMQDSFLMQPEKYGKLTTCTGCRTQCRFFDMTQCIGPNGYMEPYCSTACMNSHKTKYAKSQSLGIICHFCKRNSLPQYQATMPDGKLYNFCNSSCVAKFQALSMQSSPNGQFVAPSDIQLKCNYCKNSFCSKPEILEWENKVHQFCSKTCSDDYKKLHCIVTYCEYCQEEKTLHETVNFSGVKRPFCSEGCKLLYKQDFARRLGLRCVTCNYCSQLCKKGATKELDGVVRDFCSEDCCKKFQDWYYKAARCDCCKSQGTLKERVQWRGEMKHFCDQHCLLRFYCQQNEPNMTTQKGPENLHYDQGCQTSRTKMTGSAPPPSPTPNKEMKNKAVLCKPLTMTKATYCKPHMQTKSCQTDDTWRTEYVPVPIPVPVYIPVPMHMYSQNIPVPTTVPVPVPVPVFLPAPLDSSEKIPAAIEELKSKVSSDALDTELLTMTDMMSEDEGKTETTNINSVIIETDIIGSDLLKNSDPETQSSMPDVPYEPDLDIEIDFPRAAEELDMENEFLLPPVFGEEYEEQPRPRSKKKGAKRKAVSGYQSHDDSSDNSECSFPFKYTYGVNAWKHWVKTRQLDEDLLVLDELKSSKSVKLKEDLLSHTTAELNYGLAHFVNEIRRPNGENYAPDSIYYLCLGIQEYLCGSNRKDNIFIDPGYQTFEQELNKILRSWQPSILPDGSIFSRVEEDYLWRIKQLGSHSPVALLNTLFYFNTKYFGLKTVEQHLRLSFGTVFRHWKKNPLTMENKACLRYQVSSLCGTDNEDKITTGKRKHEDDEPVFEQIENTANPSRCPVKMFECYLSKSPQNLNQRMDVFYLQPECSSSTDSPVWYTSTSLDRNTLENMLVRVLLVKDIYDKDNYELDEDTD
In the case of B5, the binding result in assay [2] is “binds”.

B6: NONO (protein, UniProt Q99K48 1-473)
chain: MQSNKAFNLEKQNHTPRKHHQHHHQQHHQQQQQQQQQQPPPPIPANGQQASSQNEGLTIDLKNFRKPGEKTFTQRSRLFVGNLPPDITEEEMRKLFEKYGKAGEVFIHKDKGFGFIRLETRTLAEIAKVELDNMPLRGKQLRVRFACHSASLTVRNLPQYVSNELLEEAFSVFGQVERAVVIVDDRGRPSGKGIVEFSGKPAARKALDRCSEGSFLLTTFPRPVTVEPMDQLDDEEGLPEKLVIKNQQFHKEREQPPRFAQPGSFEYEYAMRWKALIEMEKQQQDQVDRNIKEAREKLEMEMEAARHEHQVMLMRQDLMRRQEELRRMEELHNQEVQKRKQLELRQEEERRRREEEMRRQQEEMMRRQQEGFKGTFPDAREQEIRMGQMAMGGAMGINNRGAMPPAPVPPGTPAPPGPATMMPDGTLGLTPPTTERFGQAATMEGIGAIGGTPPAFNRPAPGAEFAPNKRRRY
With B6, the binding result in assay [5] is given as “binds”.
